## Library screen at single concentrations

By UniProt entry, the sequences of proteins in these tests, tags left out. Residues count along the entry.
UniProt Q4DA54, 1-478: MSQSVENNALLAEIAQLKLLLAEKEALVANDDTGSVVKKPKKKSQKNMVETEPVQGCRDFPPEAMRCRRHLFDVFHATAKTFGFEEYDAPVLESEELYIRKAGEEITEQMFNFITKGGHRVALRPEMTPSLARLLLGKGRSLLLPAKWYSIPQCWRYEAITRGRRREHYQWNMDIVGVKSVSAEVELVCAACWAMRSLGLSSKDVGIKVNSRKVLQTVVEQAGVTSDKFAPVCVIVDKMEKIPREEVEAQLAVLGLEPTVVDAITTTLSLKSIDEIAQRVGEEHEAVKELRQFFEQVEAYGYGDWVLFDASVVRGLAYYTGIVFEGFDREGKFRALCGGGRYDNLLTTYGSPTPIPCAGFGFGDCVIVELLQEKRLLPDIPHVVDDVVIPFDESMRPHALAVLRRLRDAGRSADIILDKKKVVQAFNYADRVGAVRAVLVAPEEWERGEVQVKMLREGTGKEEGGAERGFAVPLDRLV
UniProt P9WNZ1, whole entry: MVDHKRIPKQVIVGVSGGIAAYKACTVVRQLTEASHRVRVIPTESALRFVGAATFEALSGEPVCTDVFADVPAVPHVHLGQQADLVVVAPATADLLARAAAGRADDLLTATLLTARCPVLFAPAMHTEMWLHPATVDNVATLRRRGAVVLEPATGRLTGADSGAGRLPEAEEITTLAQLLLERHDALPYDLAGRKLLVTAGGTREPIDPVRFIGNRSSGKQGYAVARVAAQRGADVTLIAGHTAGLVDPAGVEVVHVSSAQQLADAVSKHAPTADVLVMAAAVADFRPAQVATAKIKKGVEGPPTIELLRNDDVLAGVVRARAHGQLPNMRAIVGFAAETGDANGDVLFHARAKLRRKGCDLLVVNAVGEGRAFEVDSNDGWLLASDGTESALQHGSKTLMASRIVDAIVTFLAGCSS
UniProt P9WPC5, whole entry: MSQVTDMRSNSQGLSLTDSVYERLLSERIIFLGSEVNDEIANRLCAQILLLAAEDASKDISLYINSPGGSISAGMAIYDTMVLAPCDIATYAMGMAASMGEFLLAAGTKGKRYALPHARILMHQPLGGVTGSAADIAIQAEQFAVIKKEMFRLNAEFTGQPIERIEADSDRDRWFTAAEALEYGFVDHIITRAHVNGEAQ
UniProt P9WPC3, whole entry partner: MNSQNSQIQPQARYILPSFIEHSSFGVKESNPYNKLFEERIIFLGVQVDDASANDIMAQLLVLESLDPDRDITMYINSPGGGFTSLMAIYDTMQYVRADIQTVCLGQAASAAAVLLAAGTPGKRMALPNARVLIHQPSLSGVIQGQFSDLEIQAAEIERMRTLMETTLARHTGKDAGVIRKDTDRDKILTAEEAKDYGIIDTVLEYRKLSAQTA
UniProt Q8IDJ8, 1-583: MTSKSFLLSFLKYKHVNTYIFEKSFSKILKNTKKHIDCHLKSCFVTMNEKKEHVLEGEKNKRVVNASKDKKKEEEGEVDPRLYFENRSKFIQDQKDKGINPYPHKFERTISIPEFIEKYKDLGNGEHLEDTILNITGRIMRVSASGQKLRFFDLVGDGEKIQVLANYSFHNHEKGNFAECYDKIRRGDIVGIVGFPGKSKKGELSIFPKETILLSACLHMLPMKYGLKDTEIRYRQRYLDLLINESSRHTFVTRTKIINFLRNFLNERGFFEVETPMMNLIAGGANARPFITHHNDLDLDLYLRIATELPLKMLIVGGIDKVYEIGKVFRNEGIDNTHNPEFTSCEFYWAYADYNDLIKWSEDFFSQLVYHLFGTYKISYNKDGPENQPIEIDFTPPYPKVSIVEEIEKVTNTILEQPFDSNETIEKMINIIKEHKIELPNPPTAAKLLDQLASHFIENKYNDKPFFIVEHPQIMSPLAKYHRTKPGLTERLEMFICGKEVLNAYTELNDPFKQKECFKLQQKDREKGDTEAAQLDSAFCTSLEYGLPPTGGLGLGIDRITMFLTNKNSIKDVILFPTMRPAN

Results are given as percent effect. The controls that fix the scale are not given in the record; negative values are as filed. The compounds are a random part of those screened. Two or more numbers in one place are separate tests of the same structure; such repeats can differ widely. A dash means the value is not listed here; it may have been measured.

A: 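Cell assay of Leishmania donovani living inside macrophages; the read-out is not stated. Tested at 30 µM. Direction is inferred from retests: higher values go with stronger inhibition. About 69,000 compounds were tested under these conditions; 1.5% (about 1,000) showed 50% or more at least once.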
B: 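Histidine-tRNA ligase, Trypanosoma cruzi CL Brener (UniProt Q4DA54). Enzyme assay of histidyl-tRNA synthetase; the read-out is not stated. Compounds at 30 µM. Higher reads as stronger inhibition (inferred: compounds with an IC50 in retests scored well above the rest). Size under these conditions: about 69,000 compounds, about 31 of them at 50% or above in at least one test.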
C: 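Coenzyme A biosynthesis protein CoaBC, Mycobacterium tuberculosis (UniProt P9WNZ1). Enzyme assay of CoaBC with a phosphate dye (Biomol Green) read at 650 nm. Tested at 30 µM. Higher reads as stronger inhibition, judged from the few compounds that gave an IC50. Most strong results did not repeat in a second test. Size under these conditions: about 67,000 compounds, about 40 of them at 50% or above in at least one test.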
D: 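Protease assay of ClpP1P2, read by the AMC dye that it sets free. Target: ClpP1P2, Mycobacterium tuberculosis (UniProt P9WPC5 and UniProt P9WPC3). Tested at 50 µM. Higher reads as stronger inhibition, judged from the few compounds that gave an IC50. Most other retested compounds had strongly negative values. About 69,000 compounds were tested under these conditions; 0.015% (about 10) showed 50% or more at least once.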
E: 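Enzyme assay of the cytosolic lysyl-tRNA synthetase in 384-well plates, read by luminescence. Target: Lysine-tRNA ligase, Plasmodium falciparum 3D7 (UniProt Q8IDJ8). Tested at 30 µM. Higher reads as stronger inhibition, judged from the few compounds that gave an IC50. About 69,000 compounds were tested under these conditions; 0.071% (about 49) showed 50% or more at least once.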

{"structure": "CN(Cc1nnc(C2CC2)n1C)C1CCN(CCc2cnn(C)c2)C1", "stereo": "stereo unspecified", "A": -13.23, "B": -1.695, "C": -0.7833, "D": 9.581, "E": -3.508}
{"structure": "Cn1cnc2c1CCN(CCOc1ccc3c(c1)CCC(=O)N3)C2", "A": 27.26, "B": 5.464, "C": 1.222, "D": -2.389, "E": 5.449}
{"structure": "CCc1nnc(CN(C)Cc2cccc(C(=O)Nc3cnn(C)c3)c2)o1", "A": -0.6205, "B": 8.743, "C": 5.134, "D": -4.744, "E": 2.491}
{"structure": "O=C(O)C(F)(F)F.O=C(O)C(F)(F)F.[H][C@]12CCN(C(=O)CC(C)C)CC[C@@]1([H])S(=O)(=O)CCN2Cc1cccnc1", "A": -5.718}
{"structure": "Cc1ccc(N2CCc3ncc(CNc4ccccn4)n3CC2)nn1", "A": -11.11, "B": 3.738, "C": -3.951, "D": -18.05, "E": 4.306}
{"structure": "Cc1ccc(-c2ccnc(NC(c3ncccc3C)C3CC3)n2)c(C)n1", "stereo": "stereo unspecified", "A": -0.4835, "B": 5.579, "C": 2.033, "D": 2.128, "E": 3.818}
{"structure": "CC(=O)N1CCC(c2nccnc2C)CC1", "A": 20.05, "B": 9.848, "C": -6.045, "D": 1.673, "E": -0.7114}
{"structure": "O=C(NCCc1nccs1)c1n[nH]c2c1CCC2", "A": 8.309, "B": 10.31, "C": -1.651, "D": 1.978, "E": 0.8945}
{"structure": "O=C(O)C(F)(F)F.[H][C@@]12CO[C@@H](CNC(=O)N(C)C)[C@]1([H])CCN(Cc1cccc(F)c1)C2", "A": 18.61}
{"structure": "CNC(=O)c1ccc(CN(C(C)C)C(C)C)o1", "B": 0, "C": -1.104, "D": -2.577, "E": 1.155}
{"structure": "O=C(C1CCCC1)N1CCC2(CC1)COCCN2CC1CC1.O=C(O)C(F)(F)F", "A": 41.88}
{"structure": "Cc1cc(C(=O)N2CCOC(c3nc(C(C)C)n[nH]3)C2)c(C)s1", "stereo": "stereo unspecified", "A": 24.42, "B": 0.578, "C": 2.738, "D": -25.48, "E": 0.4763}
{"structure": "O=C(Nc1ccc(CCN2CCOCC2)cc1)C1CCC1", "A": 21.97, "B": 5.539, "C": 10.34, "D": -16.54, "E": -0.05885}
{"structure": "[H][C@]12CC[C@]([H])(CN(Cc3ccccn3)C1)N(Cc1snnc1C)C2", "A": 7.259}
{"structure": "COc1ccccc1OCc1cc(C(=O)N2CC=CC2C(C)C)n[nH]1", "stereo": "stereo unspecified", "A": 31.73, "B": 5.691, "C": 6.329, "D": -6.415, "E": 4.773}
{"structure": "COc1ccccc1CNC(=O)c1ccccc1-n1cnc(CN)c1", "A": "-4.227 & 1.251", "B": 6.667, "C": 3.148, "D": 0.6661, "E": 5.75}

For reference, 2 entries once more:

structure,A,B,C,D,E
Cc1ccc(-c2ccnc(NC(c3ncccc3C)C3CC3)n2)c(C)n1 (stereo unspecified),-0.4835,5.579,2.033,2.128,3.818
O=C(O)C(F)(F)F.O=C(O)C(F)(F)F.[H][C@]12CCN(C(=O)CC(C)C)CC[C@@]1([H])S(=O)(=O)CCN2Cc1cccnc1,-5.718,-,-,-,-

The values are deposited in ChEMBL (CHEMBL3988442, “University of Dundee, Small-Polar-MMV Screening Library” (2021)).